# Results taken from PMC5792006.
# Columns and labels:
# Test in all cases: co-IP; CHO cells coexpressing Kv4.2 constructs and KChIP2; IP with HA-antibody (WB: panKChIP-antibody) and IP with panKChIP-antibody (WB: HA-antibody)
# [1] = target: T1, Kv4.2[wt]^HA,EGFP (human) (UniProt Q9NZV8)
# T1 sequence: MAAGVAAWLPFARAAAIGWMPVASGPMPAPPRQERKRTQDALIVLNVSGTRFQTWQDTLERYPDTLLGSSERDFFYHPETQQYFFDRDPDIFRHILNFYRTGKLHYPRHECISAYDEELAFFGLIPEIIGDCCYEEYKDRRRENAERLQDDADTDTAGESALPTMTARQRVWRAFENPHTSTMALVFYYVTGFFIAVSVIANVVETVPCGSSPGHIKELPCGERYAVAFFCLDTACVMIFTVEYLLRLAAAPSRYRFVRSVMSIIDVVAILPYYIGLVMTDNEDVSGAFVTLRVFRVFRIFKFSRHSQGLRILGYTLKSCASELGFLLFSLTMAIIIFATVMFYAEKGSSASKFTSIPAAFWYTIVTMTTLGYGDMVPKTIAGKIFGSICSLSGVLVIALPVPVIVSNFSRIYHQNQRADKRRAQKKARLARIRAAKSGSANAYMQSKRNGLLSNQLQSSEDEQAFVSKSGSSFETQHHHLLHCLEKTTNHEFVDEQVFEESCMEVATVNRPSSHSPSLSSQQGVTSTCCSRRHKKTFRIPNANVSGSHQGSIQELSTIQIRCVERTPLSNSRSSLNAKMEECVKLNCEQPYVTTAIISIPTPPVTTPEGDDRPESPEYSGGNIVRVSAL
# Kv4.2[A14K]^HA (human) = target: T2, Kv4.2[A14K]^HA (human) (UniProt Q9NZV8)
# T2 sequence: T1 sequence with A14K
# [2] = target: T3, Kv4.2[A14K]^HA,EGFP (human) (UniProt Q9NZV8)
# T3 sequence: T1 sequence with A14K
# Kv4.2[wt]^HA (human) = target: T4, Kv4.2[wt]^HA (human) (UniProt Q9NZV8)
# T4 sequence: T1 sequence
substance,measurement,setting,value
human Kv channel interacting protein (KChIP) 2b,binding,[1],binds
same,binding,Kv4.2[A14K]^HA (human),no binding
same,binding,[2],no binding
same,binding,Kv4.2[wt]^HA (human),binds

# Where a chain is given by its changes, count along the chain named. Results are given in words; binding and its absence hold for the method and conditions named. In cells and extracts the contact can be indirect. For some of these results: A result given as binding can be weak or reduced; the word gives no strength. Where a sequence is shown, tags or fusion partners need not be part of it.
